Here are results for 38 compounds from the supplement of paper PMC12823440, “Inhibitors supercharge kinase turnover through native proteolytic circuits” (Nature, 2025).

Amino acid sequences for entries named in this document (tags omitted). A change or cut given only in a name is not applied to a line headed by its entry.
UniProt P42680: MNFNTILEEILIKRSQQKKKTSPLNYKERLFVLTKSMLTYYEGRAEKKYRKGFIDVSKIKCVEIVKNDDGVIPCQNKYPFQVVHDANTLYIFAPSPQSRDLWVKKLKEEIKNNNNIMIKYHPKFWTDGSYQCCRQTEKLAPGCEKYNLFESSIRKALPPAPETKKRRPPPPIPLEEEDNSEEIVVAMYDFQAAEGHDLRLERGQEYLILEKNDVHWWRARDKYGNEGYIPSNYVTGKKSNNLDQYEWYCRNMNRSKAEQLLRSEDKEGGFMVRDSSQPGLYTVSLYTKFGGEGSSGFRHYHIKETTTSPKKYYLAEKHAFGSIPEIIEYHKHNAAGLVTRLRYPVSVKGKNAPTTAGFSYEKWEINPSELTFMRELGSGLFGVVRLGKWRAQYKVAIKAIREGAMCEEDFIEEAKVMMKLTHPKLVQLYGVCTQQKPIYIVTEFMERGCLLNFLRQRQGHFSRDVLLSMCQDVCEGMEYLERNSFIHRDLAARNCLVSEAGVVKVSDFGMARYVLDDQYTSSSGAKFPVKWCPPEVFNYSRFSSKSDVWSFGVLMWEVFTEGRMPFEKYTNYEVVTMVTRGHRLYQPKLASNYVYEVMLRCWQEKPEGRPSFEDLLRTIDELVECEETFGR

Counter-ions that a name gives are not always drawn. Some of the results follow. Hit calls seldom repeat between salt and free forms of one compound.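 Kinases were expressed as nanoluciferase fusions in K562 cells and luminescence was read every 4 h between 2 and 18 h as percent of control, DMSO set to 100% and a positive control to 0%. A time point counts as decreased when the signal drops significantly (2 sigma). The hit call is the authors' own, does not follow from the count of time points alone, and its rule is not shown.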

In the test the target is TEC (UniProt P42680). As to the kind of experiment: number of time points (of 5) at which kinase-Nluc abundance scored as decreased, DMSO-normalised (count); higher = more persistent destabilization. Particulars: K562; 2-18 h.
Consider `C[C@@H]1COCCN1c1nc(-c2cnc(N)cc2C(F)F)nc(N2[C@H](C)COC[C@@H]2C)n1` (2.5 µM), for which the “number of time points” value is 0.

For `O=C(O)c1cc(=O)c2c(OCC(O)COc3cccc4oc(C(=O)O)cc(=O)c34)cccc2o1` [Cromolyn (sodium)] (10 µM), the “number of time points” value came out at 0.

In the case of `CCc1ccc(OCC(=O)Nc2ccc(F)c([N+](=O)[O-])c2)cc1` (10 µM), the “number of time points” value was determined as 0.

`CC(C)S(=O)(=O)c1ccc2nccc(Nc3ccc4scnc4c3)c2c1` (10 µM): the “number of time points” value was found to be 0.

As for `CN1CC[C@@H](c2c(O)cc(O)c3c(=O)cc(-c4ccc(C(F)(F)F)cc4Cl)oc23)[C@@H]1CO` [Voruciclib (hydrochloride)] (10 µM), the “number of time points” value was determined as 0.

As to `CC(C)=CC(=O)O[C@H]1Cc2cc3ccc(=O)oc3cc2OC1(C)C` [Decursin] (10 µM), the “number of time points” value is 0.

Turning to `CC(C)C[C@@H](C(=O)Nc1ccn(C[C@@H](O)CO)n1)N1CC(Oc2ccccc2Cl)=CC1=O` [Dorzagliatin] (10 µM), the “number of time points” value came out at 0.

Regarding `CC(C)N1CCN(c2ccc(Nc3ncc4cc5n(c4n3)C3(CCCCC3)CNC5=O)nc2)CC1` [Lerociclib (dihydrochloride)] (2 µM), the “number of time points” value worked out at 0.

As for `CCCCCCCCCCCCCCCCOP(=O)([O-])OCC[N+](C)(C)C` [Miltefosine] (10 µM), the “number of time points” value worked out at 0.

For `COCCNc1cc(NC(=O)N2CCCc3cc(CN4CCN(C)CC4=O)c(C=O)nc32)ncc1C#N` [Roblitinib] (10 µM), the “number of time points” value turned out to be 0.

Turning to `Cc1ccc(NC(=O)c2ccc(CN(CCN(C)C)C(=O)c3cccnc3)cc2)cc1Nc1nccc(-c2cccnc2)n1` [PDGFRα kinase inhibitor 1] (10 µM), the “number of time points” value worked out at 0.

For the compound `c1ccc(-c2nc(=NCCN3CCOCC3)sn2-c2ccccc2)cc1` [VP3.15 (dihydrobromide)] (10 µM), the “number of time points” value is 0.

For `O=C1NC(=Nc2c(Cl)cccc2Cl)S/C1=C\c1ccc2nccnc2c1` (2.5 µM), the “number of time points” value turned out to be 0.

As to `Cc1cc(-c2ccnc(Nc3cnn(C)c3)n2)ccc1CNC(=O)N1CC(OC(C)C)C1` (10 µM), the “number of time points” value amounted to 0.

Regarding `CN(C)S(=O)(=O)c1ccc2c(c1)/C(=C/c1cc3c([nH]1)CCCC3)C(=O)N2` (2.5 µM), the “number of time points” value is 0.

Consider `Cc1cnc(NC2CCOCC2)nc1-n1cnc(C(=O)N[C@H](CN)c2cc(F)cc(Cl)c2)c1` (10 µM), for which the “number of time points” value came out at 0.

On to `N#CC(c1ccnc(OCc2ccc(CN3CCOCC3)cc2)n1)c1nc2ccccc2s1` (stereo not drawn) [Bentamapimod] (2.5 µM), for which the “number of time points” value was determined as 0.

Turning to `Cc1c(-c2ccc(C(N)=O)c3[nH]c4cc(C(C)(C)O)ccc4c23)cccc1-n1cnc2ccccc2c1=O` (2.5 µM), the “number of time points” value turned out to be 0.

On to `CN(C)c1nc2c(Br)c(Br)c(Br)c(Br)c2[nH]1` (10 µM), for which the “number of time points” value came to 0.

Turning to `Nc1ncnc2c1c(-c1ccc(Oc3ccccc3)cc1)nn2C1CCN(CCOCCOCCOc2ccc3c(c2)CN(C2CCC(=O)NC2=O)C3=O)CC1` (stereo not drawn) (2.5 µM), the “number of time points” value worked out at 4.

For the compound `O=[N+]([O-])c1ccc(Nc2nc(N3CCOCC3)nc(N3CCOCC3)n2)cc1` (10 µM), the “number of time points” value was found to be 0.

For the compound `C[C@H](Nc1ncnc2[nH]cnc12)c1cc2ccc(F)cc2nc1-c1ccccn1` (10 µM), the “number of time points” value was determined as 0.

Turning to `CCc1cccc(CC)c1NC(=O)N1Cc2[nH]nc(NC(=O)c3ccc(N4CCN(C)CC4)cc3)c2C1` (2.5 µM), the “number of time points” value came out at 0.

In the case of `CCc1cncnc1N1CCN(Cc2nc3ccc(C(F)(F)F)cc3[nH]2)CC1` (10 µM), the “number of time points” value was determined as 0.

Regarding `COc1cc(-c2cn[nH]c2)ccc1C(=O)Nc1ccc2c(c1)CCNCC2` (10 µM), the “number of time points” value stood at 0.

With `Cn1cc2cc(C(F)(F)c3nnc4ccc(-c5cnn(C6CC6)c5)nn34)c(F)cc2n1` [Bozitinib] (10 µM), the “number of time points” value worked out at 0.

For `O=Nc1c2[nH]c3ccccc3nc-2c2ccccc12` [IQ-1S (free acid)] (2.5 µM), the “number of time points” value was determined as 0.

Regarding `CCN(CC)c1cc2oc(=O)c(-c3nc4ccccc4o3)cc2cc1C` (2.5 µM), the “number of time points” value is 0.

Consider `COc1cc(N2CCOCC2)ccc1NC(=O)c1csc(-c2cccnc2)n1` [IRAK inhibitor 6] (10 µM), for which the “number of time points” value stood at 0.

Take `CNc1nc(Nc2cn(C(C)(C)C#N)nc2C)ncc1C(F)(F)F` (10 µM): the “number of time points” value was found to be 0.

Consider `COc1nn(C)cc1Nc1nccc(-c2c[nH]c3c(NC(=O)[C@@H](C)N4CCN(C)CC4)cccc23)n1` (10 µM), for which the “number of time points” value was found to be 0.

As for `N#Cc1ccnc(Nc2cc(C3CCN(C4COC4)CC3)cc(N3CCC(F)(F)C3)n2)c1` (2.5 µM), the “number of time points” value is 0.

For the compound `Cc1cccc2c3c(ccc12)C(=O)C1=C(OCC1C)C3=O` (stereo not drawn) [Dihydroisotanshinone I] (2.5 µM), the “number of time points” value came out at 0.

As to `CNc1nc(Nc2ccc(C(=O)N3CCOCC3)cc2OC)ncc1Cl` (2.5 µM), the “number of time points” value worked out at 0.

Consider `CCN(CC)c1ccc2cc(-c3nc4cc(C)ccc4o3)c(=O)oc2c1` (10 µM), for which the “number of time points” value was found to be 0.

With `COc1ccccc1C(=O)/C=C/c1ccccc1C(=O)O` (10 µM), the “number of time points” value stood at 0.

For the compound `CC(=O)N1CCC(c2cc(-c3ccc(NC(=O)c4cccn(-c5ccc(F)cc5)c4=O)cc3F)c3c(N)ncnn23)CC1` (0.5 µM), the “number of time points” value was 0.

In the case of `O[C@@H]1CO[C@H]2[C@@H]1OC[C@H]2Oc1nc2nc(-c3ccc(-c4ccccc4)cc3)c(Cl)cc2[nH]1` (10 µM), the “number of time points” value was 0.
